Test [1] addresses human Tie2 extracellular domain (hTie2 ECD) (human) (UniProt Q02763). The experiment in a line: SEC-MALS; Superdex 200 Increase 10/300 GL, 0.5 ml/min, room temperature, 20 mM HEPES pH 7.5, 200 mM NaCl (legend: PBS); 3 mg/ml hTie2 Fn2–3, 1 mg/ml all others; both purified.
For test [2], the target named is full-length Tie2-GFP V685D/V687D/K700E (human) (UniProt Q02763). Briefly: SEC; fluorescence size-exclusion chromatography (FSEC) of full-length Tie2-GFP solubilised from HEK293F membranes by LMNG-CHS. Background: In gel filtration, larger molecules generally elute earlier.
In test [3] the target is full-length Tie2-GFP D682C/N691C (human) (UniProt Q02763). Described as above.

Chains of the proteins cited; added tags and fusions are not shown. Lines headed by an entry give the natural chain unless they say otherwise; changes in a name come on top. A line that says so, or that is headed by a name, gives the form on record, which may keep a tag or linker. Residues count along the entry.
human Tie2 extracellular domain (hTie2 ECD) (Q02763, residues 23-735): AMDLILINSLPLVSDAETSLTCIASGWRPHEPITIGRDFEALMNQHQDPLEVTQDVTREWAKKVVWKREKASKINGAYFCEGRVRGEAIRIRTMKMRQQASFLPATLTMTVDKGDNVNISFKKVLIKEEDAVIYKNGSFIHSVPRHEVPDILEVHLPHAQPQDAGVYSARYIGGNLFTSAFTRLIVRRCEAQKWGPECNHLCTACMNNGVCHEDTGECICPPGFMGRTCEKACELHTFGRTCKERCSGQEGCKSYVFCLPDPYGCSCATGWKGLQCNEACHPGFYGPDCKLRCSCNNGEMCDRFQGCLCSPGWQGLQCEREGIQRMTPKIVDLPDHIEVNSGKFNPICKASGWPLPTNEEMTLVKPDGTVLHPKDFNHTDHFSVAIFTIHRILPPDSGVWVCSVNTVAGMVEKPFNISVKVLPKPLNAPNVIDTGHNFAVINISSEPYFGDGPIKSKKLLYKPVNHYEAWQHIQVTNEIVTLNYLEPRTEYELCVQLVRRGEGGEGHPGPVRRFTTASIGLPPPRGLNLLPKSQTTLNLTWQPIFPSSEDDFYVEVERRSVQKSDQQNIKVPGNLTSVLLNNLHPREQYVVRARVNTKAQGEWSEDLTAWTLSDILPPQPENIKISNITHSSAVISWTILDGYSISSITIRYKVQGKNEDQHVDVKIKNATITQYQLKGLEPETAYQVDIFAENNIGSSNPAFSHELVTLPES
full-length Tie2-GFP V685D/V687D/K700E (Q02763, form named): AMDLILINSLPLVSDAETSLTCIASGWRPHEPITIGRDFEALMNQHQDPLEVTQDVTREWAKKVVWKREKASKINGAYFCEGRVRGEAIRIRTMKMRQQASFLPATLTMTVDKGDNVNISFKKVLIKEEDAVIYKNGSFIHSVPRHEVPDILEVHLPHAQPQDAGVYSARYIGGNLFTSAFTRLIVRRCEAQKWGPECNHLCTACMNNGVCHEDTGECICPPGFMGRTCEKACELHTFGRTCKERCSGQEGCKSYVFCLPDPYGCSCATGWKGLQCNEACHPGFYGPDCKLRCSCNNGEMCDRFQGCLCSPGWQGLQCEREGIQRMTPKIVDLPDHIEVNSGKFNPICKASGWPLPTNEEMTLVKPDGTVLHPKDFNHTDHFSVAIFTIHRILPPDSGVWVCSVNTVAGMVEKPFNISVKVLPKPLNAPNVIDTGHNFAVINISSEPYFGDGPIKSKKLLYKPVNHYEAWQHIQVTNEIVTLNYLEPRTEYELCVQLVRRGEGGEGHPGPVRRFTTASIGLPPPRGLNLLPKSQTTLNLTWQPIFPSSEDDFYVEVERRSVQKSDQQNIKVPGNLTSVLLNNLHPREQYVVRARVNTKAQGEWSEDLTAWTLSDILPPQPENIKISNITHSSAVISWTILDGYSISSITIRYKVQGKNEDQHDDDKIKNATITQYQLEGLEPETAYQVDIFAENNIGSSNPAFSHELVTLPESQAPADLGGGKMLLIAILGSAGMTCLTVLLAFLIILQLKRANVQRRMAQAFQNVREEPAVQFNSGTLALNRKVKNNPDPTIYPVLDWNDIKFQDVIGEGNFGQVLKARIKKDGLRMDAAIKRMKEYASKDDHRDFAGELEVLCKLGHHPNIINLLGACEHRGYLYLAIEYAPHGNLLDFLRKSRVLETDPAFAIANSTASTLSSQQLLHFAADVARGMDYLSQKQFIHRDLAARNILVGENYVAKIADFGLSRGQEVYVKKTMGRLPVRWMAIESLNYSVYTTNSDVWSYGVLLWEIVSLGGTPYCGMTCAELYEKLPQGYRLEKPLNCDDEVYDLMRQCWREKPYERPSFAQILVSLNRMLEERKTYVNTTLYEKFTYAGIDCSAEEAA
full-length Tie2-GFP D682C/N691C (Q02763, form named): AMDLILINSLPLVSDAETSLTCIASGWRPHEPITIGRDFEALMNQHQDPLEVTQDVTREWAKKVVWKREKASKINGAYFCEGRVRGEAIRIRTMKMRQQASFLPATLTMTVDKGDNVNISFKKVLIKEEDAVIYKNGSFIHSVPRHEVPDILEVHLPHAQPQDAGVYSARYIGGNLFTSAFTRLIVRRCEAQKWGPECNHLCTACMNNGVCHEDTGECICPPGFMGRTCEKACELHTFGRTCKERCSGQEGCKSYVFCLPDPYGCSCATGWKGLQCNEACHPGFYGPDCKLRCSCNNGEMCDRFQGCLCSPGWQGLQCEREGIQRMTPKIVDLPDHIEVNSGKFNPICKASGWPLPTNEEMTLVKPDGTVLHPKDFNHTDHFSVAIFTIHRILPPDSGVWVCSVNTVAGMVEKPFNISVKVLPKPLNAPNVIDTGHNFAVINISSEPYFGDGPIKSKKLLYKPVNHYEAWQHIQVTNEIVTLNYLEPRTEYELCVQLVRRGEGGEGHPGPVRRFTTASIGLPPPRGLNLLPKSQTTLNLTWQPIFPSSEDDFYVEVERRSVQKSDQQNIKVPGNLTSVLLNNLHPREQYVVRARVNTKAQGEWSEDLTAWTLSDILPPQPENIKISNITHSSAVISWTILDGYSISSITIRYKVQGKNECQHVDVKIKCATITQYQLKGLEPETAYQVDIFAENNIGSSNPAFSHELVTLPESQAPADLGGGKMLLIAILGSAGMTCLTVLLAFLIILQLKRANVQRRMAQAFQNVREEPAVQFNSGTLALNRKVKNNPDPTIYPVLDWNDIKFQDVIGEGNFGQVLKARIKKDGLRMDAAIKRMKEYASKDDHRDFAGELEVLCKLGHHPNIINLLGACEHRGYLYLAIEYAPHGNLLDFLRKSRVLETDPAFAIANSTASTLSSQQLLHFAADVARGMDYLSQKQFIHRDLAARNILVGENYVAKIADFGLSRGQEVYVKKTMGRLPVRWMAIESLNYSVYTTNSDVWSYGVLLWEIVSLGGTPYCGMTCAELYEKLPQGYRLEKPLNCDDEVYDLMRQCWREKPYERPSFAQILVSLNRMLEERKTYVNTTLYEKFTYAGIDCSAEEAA

No constants are given. Whether binding was seen depends on the method and setting. Some results given as binding are weak or reduced against the parent protein; the word gives no strength.

On to “human Tie2 extracellular domain (hTie2 ECD) (from UniProt Q02763 23-735) (domain or fragment)”, for which the binding entry in test [1] is recorded as “no binding (tested: 1 mg/ml)”. Turning to “full-length Tie2-GFP V685D/V687D/K700E (from UniProt Q02763 23-1124) (receptor)”, in test [2], the binding entry is recorded as “no binding”. Consider “full-length Tie2-GFP D682C/N691C (from UniProt Q02763 23-1124) (receptor)”, for which the binding result in test [3] is “binds”.
